# PubChem BioAssay AID602196 | INSERM, 2012
# Purpose: 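Knock-downs that protect lung cancer cells from cisplatin or sensitise them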
# Cell system: human A549 lung cancer cells
# Knock-down reagent: siRNA pair against human genes
# Timing: 48 h transfection before cisplatin; time from cisplatin to read-out not stated
# Challenge: cisplatin at a dose killing half of control-siRNA cells; exact dose and duration not given
# Read-out: 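Cisplatin cell death as a shift from the 50% death seen with control siRNA; siRNAs toxic or growth-blocking alone scored 0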
# Reading the numbers: two-siRNA summed score (-2 to +2): higher = both siRNAs protect from cisplatin killing; -2 means both sensitise
# Call rule: 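siRNAs harmful alone (LDH or WST-1) get 0; others get +1 for less and -1 for more cisplatin killing; genes are active when the two siRNAs give the same sign, summing to ±2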
# Calls: active = both siRNAs shift cisplatin killing the same way; inactive = no consistent shift, or siRNA harmful alone
# In all, the deposit lists about 23,000 reagents; this is a part drawn at random. 455 of them (2%) count as active. 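Active includes both protection and sensitisation; some change values fall well beyond the stated -50 to +50 range.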 Further read-outs or replicates are left out here. Not given: the amount of reagent.
The opening 3 records, to show the layout:
gene,two-siRNA summed score (-2 to +2),activity call
TUBGCP2 (tubulin gamma complex component 2),-1,inactive
MAST2 (microtubule associated serine/threonine kinase 2),0,inactive
ZNF473CR (ZNF473 cis regulating lncRNA),0,inactive

Main list, from the start:
gene,two-siRNA summed score (-2 to +2),activity call
TUBGCP2 (tubulin gamma complex component 2),-1,inactive
MAST2 (microtubule associated serine/threonine kinase 2),0,inactive
ZNF473CR (ZNF473 cis regulating lncRNA),0,inactive
SHPRH (SNF2 histone linker PHD RING helicase),0,inactive
LOC441354,-1,inactive
STUB1-DT (STUB1 divergent transcript),0,inactive
TBC1D22A (TBC1 domain family member 22A),0,inactive
TESMIN (testis expressed metallothionein like protein),0,inactive
VN1R1 (vomeronasal 1 receptor 1),0,inactive
ARHGEF9 (Cdc42 guanine nucleotide exchange factor 9),0,inactive
TBC1D10A (TBC1 domain family member 10A),-1,inactive
ZBED5 (zinc finger BED-type containing 5),0,inactive
CYTH4 (cytohesin 4),-1,inactive
MKX (mohawk homeobox),0,inactive
CCDC190 (coiled-coil domain containing 190),0,inactive
DNAJA2 (DnaJ heat shock protein family (Hsp40) member A2),1,inactive
ZNF593 (zinc finger protein 593),0,inactive
RGS17 (regulator of G protein signaling 17),0,inactive
AUNIP (aurora kinase A and ninein interacting protein),-1,inactive
"ZYG11B (zyg-11 family member B, cell cycle regulator)",0,inactive
LOC441377,0,inactive
CLN6 (CLN6 transmembrane ER protein),0,inactive
AVL9 (AVL9 cell migration associated),1,inactive
EMC7 (ER membrane protein complex subunit 7),0,inactive
COL6A3 (collagen type VI alpha 3 chain),0,inactive
PAK6 (p21 (RAC1) activated kinase 6),1,inactive
FLJ40288 (Putative uncharacterized protein FLJ40288),1,inactive
CCR6 (C-C motif chemokine receptor 6),-1,inactive
ABTB1 (ankyrin repeat and BTB domain containing 1),0,inactive
UQCRFS1,1,inactive
CAP2 (cyclase associated actin cytoskeleton regulatory protein 2),1,inactive
TAMALIN (trafficking regulator and scaffold protein tamalin),0,inactive
LOC400839,0,inactive
PLAAT2 (phospholipase A and acyltransferase 2),0,inactive
LOC441232,0,inactive
SIGLEC12 (sialic acid binding Ig like lectin 12),1,inactive
VPS51P8 (VPS51 pseudogene 8),0,inactive
BLTP3B (bridge-like lipid transfer protein family member 3B),0,inactive
LOC391511,1,inactive
TGOLN2 (trans-golgi network protein 2),0,inactive
MAPK9 (mitogen-activated protein kinase 9),0,inactive
GLDC (glycine decarboxylase),0,inactive
"REV3L (REV3 like, DNA directed polymerase zeta catalytic subunit)",-1,inactive
LOC130839,0,inactive
LOC442147,1,inactive
AHRR (aryl hydrocarbon receptor repressor),0,inactive
CCR3 (C-C motif chemokine receptor 3),0,inactive
"RTF1 (RTF1 homolog, Paf1/RNA polymerase II complex component)",1,inactive
CDH23 (cadherin related 23),0,inactive
OTP (orthopedia homeobox),0,inactive
LOC440241,1,inactive
LOC253254,0,inactive
RFTN2 (raftlin family member 2),0,inactive
CCDC92 (coiled-coil domain containing 92),0,inactive
ZXDB (zinc finger X-linked duplicated B),0,inactive
FCRLB (Fc receptor like B),1,inactive
DHRSX (dehydrogenase/reductase X-linked),1,inactive
